Assay [1] deals with T1, Class A scavenger receptor (SR-A) (mouse (endogenous in peritoneal macrophages and RAW264.7)) (UniProt P30204).
T1 sequence: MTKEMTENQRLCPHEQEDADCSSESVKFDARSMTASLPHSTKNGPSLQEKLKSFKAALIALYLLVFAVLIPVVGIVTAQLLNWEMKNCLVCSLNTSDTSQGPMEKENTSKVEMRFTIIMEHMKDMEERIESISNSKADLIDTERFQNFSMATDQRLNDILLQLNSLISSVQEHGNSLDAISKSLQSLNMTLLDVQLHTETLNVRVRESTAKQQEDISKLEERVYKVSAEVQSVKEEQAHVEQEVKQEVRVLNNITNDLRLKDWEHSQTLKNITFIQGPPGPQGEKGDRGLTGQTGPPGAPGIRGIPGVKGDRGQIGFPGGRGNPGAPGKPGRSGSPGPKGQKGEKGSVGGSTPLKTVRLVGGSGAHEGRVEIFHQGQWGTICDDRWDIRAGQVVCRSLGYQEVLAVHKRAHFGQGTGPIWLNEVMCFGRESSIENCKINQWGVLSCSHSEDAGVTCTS
Nature of the assay: co-IP.

By UniProt entry, the sequences of proteins in these tests, tags left out.
UniProt P56477: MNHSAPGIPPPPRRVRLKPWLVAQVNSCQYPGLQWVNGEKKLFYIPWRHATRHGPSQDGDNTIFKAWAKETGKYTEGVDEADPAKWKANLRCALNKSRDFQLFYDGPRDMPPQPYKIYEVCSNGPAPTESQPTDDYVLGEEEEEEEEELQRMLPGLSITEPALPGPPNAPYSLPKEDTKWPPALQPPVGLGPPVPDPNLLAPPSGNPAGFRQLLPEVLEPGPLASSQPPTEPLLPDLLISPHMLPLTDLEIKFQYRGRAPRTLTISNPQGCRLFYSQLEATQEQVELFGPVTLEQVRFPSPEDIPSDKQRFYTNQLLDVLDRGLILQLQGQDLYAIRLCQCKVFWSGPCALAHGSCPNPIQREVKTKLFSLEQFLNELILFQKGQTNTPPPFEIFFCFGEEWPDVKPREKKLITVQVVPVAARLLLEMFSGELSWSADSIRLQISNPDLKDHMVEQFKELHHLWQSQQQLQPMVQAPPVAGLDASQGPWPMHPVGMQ

The target of assay [2] is T1, Class A scavenger receptor (SR-A) (mouse (endogenous in peritoneal macrophages and RAW264.7)). Nature of the assay: co-IP; cytoplasm of RAW264.7 cells, with SR-A siRNA knock-down or forced expression of SR-A (pcDNA3.1-MSR); immunoblot.
The target in assay [3] is T2, SR-A expressed from pcDNA3.1-MSR (forced expression) (UniProt P30204).
T2 sequence: T1 sequence
The description is as above.

The target of assay [4] is interferon-regulatory factor 5 (IRF5) (mouse (endogenous in peritoneal macrophages and RAW264.7)) (UniProt P56477). Kind of assay: co-IP.

Results are given in words; binding and its absence hold for the method and conditions named. Binding seen in cells or lysates may run through a third protein. Some entries that bind do so weakly or less than the wild type.

“interferon-regulatory factor 5 (IRF5) (from UniProt P56477 1-497)”: the binding result in assay [1], in assay [2] and in assay [3] was “binds” each time.

B1: Class A scavenger receptor (SR-A) (receptor, UniProt P30204 1-458)
chain: T1 sequence
With B1, the binding result in assay [4] was “binds”.
